{
  "source": "patent US20230097553A1",
  "about": "(priority 2020, published 2023)",
  "assay": "Antiviral activity in combination with other antiviral drugs",
  "conditions": "combined with lopinavir, ritonavir, ribavirin, remdesivir, oseltamivir, tamiflu, lanimivir, peramivir, chloroquine",
  "note": "At least one compound was matched to its structure with a doubt left.",
  "data": [
    {"smiles": "C/C(O)=C(\\C#N)C(=O)Nc1ccc(C(F)(F)F)cc1", "note": "[Teriflunomide, teriflunomide]", "values": [
      {"measurement": "therapeutic effects in combination with other antiviral drugs", "value": "better therapeutic effects"}
    ]}
  ]
}
